The subject of the data set is TTA45. Description: Small-angle X-ray scattering of TTA45. Also noted: species or system human. The following applies: 100 μM TTA45 with 400 μM BMPQ-1.

For `Cc1ccc(Cn2cc3c(-c4ccc5c(c4)OCO5)nnc-3c3cc4c(cc32)OCO4)cc1` [BMPQ-1], under “apo 21.8 Å”, the “gyration radius (Rg) of TTA45, holo form” value was 18.9 Å. Besides, the “maximum distance (Dmax) of TTA45, holo form” value (apo 90 Å) is recorded as 75 Å.

Source of the values: PMC7672424 (Nucleic Acids Research, 2020).
